Assay results taken from the supplement of paper PMC10849652.
The other results are listed elsewhere or left out. Residues, ends and D or L forms follow the SMILES beside them. *: point of attachment. Cbz = O=C(OCc1ccccc1)*

By UniProt entry, the sequences of proteins in these tests, tags left out. Where a name states a change or a piece, a line headed by the entry shows the natural chain unless it says otherwise.
UniProt Q14997: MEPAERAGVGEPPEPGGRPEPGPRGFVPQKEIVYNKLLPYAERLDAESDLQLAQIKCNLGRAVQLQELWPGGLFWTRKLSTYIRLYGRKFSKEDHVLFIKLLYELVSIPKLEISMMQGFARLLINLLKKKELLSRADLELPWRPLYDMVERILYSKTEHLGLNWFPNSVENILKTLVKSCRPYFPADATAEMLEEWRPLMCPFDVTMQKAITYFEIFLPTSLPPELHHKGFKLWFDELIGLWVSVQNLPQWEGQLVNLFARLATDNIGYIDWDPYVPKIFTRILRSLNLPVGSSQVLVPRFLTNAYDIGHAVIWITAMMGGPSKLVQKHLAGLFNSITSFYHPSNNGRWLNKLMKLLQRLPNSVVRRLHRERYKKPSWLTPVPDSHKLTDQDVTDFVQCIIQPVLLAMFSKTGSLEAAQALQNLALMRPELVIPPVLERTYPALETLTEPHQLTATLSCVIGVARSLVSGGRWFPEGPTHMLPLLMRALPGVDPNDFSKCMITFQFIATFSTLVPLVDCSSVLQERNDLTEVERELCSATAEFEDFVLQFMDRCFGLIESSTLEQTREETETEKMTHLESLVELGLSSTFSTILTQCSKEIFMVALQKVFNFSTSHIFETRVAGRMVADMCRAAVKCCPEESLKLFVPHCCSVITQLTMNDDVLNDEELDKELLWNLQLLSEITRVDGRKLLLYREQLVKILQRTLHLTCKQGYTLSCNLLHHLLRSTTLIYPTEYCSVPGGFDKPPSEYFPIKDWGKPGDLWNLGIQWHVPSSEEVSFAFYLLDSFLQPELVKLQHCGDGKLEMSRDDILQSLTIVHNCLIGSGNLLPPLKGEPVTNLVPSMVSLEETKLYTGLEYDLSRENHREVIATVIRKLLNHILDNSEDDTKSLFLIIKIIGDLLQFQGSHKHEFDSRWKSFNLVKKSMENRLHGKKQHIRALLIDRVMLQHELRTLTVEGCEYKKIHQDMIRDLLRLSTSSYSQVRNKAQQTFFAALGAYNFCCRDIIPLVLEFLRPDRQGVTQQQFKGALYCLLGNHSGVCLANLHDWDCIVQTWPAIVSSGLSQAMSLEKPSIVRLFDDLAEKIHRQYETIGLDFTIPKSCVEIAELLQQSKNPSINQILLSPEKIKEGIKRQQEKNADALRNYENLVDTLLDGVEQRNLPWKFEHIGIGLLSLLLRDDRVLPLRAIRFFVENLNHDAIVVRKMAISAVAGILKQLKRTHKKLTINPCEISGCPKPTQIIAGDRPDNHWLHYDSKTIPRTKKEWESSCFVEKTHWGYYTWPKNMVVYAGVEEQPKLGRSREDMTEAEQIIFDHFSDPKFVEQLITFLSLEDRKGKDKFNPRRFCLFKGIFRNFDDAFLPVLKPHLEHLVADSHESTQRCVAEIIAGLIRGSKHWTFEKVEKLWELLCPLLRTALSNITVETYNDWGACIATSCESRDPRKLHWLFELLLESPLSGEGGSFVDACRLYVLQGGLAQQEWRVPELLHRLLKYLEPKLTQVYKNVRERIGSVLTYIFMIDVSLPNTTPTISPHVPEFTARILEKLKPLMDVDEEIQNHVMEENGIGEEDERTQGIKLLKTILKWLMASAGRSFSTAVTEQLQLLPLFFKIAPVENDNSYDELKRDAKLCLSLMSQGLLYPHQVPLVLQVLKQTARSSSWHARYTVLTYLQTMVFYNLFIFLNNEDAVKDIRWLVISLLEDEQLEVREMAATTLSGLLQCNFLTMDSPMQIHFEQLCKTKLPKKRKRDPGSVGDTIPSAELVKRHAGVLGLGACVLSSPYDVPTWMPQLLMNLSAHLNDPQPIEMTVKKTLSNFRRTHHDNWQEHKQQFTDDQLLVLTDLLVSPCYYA
UniProt P53801: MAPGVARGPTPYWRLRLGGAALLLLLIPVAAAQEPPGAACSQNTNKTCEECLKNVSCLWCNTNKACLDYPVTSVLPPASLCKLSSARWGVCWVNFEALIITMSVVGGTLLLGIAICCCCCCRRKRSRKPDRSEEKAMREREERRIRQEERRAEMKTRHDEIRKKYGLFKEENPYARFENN
UniProt Q8WUY3: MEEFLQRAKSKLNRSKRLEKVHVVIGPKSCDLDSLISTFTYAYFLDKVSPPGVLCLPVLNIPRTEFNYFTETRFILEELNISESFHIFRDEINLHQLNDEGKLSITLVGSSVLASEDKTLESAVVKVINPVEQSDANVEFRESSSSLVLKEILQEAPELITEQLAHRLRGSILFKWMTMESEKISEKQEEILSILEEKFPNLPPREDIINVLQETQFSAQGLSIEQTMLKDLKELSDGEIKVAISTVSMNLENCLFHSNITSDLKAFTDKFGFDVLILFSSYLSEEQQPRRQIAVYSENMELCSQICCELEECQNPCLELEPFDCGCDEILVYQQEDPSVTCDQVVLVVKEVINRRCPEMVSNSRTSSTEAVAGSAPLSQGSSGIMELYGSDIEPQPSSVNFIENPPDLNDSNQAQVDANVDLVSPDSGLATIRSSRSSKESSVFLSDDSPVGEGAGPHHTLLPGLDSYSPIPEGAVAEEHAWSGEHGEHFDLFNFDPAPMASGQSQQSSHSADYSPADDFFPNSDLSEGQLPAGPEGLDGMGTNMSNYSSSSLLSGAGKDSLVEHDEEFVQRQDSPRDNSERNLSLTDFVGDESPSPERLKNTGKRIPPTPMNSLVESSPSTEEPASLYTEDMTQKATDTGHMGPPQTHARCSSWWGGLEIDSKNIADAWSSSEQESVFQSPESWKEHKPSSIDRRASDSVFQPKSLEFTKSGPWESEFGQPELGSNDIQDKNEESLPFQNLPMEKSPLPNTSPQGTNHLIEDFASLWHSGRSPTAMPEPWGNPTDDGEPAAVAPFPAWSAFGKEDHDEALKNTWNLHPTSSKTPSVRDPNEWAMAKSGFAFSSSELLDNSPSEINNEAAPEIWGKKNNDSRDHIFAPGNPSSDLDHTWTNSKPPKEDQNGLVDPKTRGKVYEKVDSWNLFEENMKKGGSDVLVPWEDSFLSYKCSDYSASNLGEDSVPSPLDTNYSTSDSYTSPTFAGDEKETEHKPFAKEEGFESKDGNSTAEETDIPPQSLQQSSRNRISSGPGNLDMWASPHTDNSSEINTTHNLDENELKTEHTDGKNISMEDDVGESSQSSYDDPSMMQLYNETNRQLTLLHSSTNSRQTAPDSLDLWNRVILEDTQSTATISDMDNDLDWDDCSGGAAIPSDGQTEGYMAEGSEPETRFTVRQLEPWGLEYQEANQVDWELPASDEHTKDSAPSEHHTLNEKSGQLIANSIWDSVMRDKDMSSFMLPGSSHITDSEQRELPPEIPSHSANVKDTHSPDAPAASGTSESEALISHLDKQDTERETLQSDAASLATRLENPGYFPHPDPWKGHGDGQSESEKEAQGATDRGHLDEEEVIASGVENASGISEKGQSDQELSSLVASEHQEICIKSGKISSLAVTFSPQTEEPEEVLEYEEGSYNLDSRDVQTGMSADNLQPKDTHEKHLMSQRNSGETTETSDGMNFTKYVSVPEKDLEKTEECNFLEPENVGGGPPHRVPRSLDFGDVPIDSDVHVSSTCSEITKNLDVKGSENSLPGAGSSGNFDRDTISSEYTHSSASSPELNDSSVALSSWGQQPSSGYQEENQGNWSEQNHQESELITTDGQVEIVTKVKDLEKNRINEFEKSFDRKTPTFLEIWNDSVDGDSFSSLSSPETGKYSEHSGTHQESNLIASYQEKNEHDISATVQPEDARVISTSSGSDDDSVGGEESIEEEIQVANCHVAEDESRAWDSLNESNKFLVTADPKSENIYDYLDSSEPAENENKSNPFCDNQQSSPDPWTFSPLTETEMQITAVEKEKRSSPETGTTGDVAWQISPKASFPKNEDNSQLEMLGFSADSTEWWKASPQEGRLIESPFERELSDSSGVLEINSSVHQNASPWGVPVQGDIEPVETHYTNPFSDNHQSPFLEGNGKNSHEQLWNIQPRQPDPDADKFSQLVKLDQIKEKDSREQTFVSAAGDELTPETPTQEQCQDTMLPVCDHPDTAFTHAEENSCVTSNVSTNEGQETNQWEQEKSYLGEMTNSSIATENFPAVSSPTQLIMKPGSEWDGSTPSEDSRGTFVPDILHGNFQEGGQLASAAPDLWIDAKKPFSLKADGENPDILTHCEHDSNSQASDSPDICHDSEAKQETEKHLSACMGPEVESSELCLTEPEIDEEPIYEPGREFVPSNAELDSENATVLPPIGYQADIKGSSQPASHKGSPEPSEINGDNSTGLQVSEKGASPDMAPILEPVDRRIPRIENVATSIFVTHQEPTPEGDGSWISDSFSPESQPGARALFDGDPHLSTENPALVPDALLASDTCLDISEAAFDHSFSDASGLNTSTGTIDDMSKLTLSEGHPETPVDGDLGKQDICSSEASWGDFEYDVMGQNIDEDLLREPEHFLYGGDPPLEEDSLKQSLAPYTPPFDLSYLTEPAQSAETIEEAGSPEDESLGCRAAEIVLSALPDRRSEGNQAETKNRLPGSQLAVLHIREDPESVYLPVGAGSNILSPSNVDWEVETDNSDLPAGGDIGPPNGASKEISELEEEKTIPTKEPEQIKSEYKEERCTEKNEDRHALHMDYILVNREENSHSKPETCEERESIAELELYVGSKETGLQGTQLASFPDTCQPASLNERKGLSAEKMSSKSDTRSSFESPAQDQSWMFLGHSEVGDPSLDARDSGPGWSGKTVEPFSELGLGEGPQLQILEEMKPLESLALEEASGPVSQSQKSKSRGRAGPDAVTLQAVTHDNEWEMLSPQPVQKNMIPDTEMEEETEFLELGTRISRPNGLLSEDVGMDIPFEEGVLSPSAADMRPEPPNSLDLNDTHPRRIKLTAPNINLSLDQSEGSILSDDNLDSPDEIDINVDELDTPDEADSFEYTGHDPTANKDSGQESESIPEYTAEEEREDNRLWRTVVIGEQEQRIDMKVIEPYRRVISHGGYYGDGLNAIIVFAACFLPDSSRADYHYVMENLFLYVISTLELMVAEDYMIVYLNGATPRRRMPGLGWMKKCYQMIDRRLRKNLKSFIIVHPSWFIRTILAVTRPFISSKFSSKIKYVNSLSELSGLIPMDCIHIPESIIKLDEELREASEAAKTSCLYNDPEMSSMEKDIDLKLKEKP
UniProt Q9BRX8: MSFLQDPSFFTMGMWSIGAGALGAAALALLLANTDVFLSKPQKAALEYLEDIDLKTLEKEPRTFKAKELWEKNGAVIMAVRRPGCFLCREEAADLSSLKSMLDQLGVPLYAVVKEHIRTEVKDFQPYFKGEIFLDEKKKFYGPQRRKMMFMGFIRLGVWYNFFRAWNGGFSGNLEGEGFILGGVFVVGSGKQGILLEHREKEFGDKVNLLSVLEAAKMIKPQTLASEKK
UniProt P35998: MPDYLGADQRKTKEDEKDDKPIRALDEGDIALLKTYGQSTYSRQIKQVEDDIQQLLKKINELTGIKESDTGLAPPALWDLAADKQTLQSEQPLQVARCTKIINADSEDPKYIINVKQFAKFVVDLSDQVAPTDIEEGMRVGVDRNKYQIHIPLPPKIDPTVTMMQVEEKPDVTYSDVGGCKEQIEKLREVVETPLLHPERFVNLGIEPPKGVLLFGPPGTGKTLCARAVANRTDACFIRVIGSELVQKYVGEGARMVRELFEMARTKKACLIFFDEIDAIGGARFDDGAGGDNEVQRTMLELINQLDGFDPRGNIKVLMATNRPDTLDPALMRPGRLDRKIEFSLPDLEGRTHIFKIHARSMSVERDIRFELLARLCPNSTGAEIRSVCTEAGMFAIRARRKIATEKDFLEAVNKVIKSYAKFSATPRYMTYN
UniProt Q8WUK0: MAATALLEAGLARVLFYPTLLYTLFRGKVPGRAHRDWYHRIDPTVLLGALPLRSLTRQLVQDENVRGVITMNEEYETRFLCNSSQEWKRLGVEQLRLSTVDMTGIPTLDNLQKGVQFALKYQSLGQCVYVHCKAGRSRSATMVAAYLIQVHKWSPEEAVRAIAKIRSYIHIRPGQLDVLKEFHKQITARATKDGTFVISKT
UniProt Q96I23: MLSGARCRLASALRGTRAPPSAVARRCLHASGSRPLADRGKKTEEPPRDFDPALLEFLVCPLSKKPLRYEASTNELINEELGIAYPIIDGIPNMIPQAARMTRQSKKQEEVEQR
UniProt P28072: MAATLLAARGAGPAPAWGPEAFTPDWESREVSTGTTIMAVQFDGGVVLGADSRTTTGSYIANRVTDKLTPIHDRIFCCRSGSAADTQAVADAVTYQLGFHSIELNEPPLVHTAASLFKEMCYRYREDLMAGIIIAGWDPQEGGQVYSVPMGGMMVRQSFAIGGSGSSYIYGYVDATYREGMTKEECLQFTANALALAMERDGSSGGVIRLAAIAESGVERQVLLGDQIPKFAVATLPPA
UniProt Q03393: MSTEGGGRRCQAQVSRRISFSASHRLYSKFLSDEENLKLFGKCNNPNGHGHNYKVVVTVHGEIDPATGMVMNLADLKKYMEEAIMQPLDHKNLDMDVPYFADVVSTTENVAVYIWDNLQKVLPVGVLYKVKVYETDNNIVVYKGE

Key:
Assay in all cases: log2 fold change, soluble protein after heating vs DMSO (PISA); higher = thermal stabilisation; K562 cells, 10 uM, 30 min; active = over 0.2 and 3.5 SD of the protein, either way, in both replicates (recomputed)
erlotinib = compound: C#Cc1cccc(Nc2ncnc3cc(OCCOC)c(OCCOC)cc23)c1 [erlotinib]
How it was run: (§1)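 Quantification of soluble protein used TMTpro 16plex LC-MS/MS, with channel sums equalised. Samples were the supernatant after 21,000xg for 90 min of pooled aliquots from K562 cells (2×10^6 cells/mL) treated with 10 μM compound for 30 min, heated for 3 min over 48°C-58°C, and extracted in PBS with 0.5% NP-40 at 4°C. Values, from duplicates, describe thermal stability against control samples on a log2 fold-change scale.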

[1] = compound: C/C(=N\NC(=O)C1=CC(=CC=C1)S(=O)(=O)N2CCOCC2)/C3=C(C=CC(=C3)Cl)O
How it was run: as §1

[2] = compound: C1=CC(=C(C=C1Cl)C2=NC3=NC=CN=C3C(=N2)NC4=CC=NC=C4)F
How it was run: as §1

[3] = compound: C1=CC(=CC=C1C2=NC3=C(N2)C=C(C=C3)C(=O)N)OC4=CC=C(C=C4)Cl
How it was run: as §1

[4] = compound: C1=CC2=C(C=CC(=C2)/C=C\3/C(=O)NC(=NCC4=CC=CS4)S3)N=C1
How it was run: as §1

[5] = compound: C1=CC2=NC=CN=C2C=C1/C=C/3\C(=O)NC(=O)S3
How it was run: as §1

[6] = compound: C1=CC=C(C=C1)C2=NC(=C(N2)C3=CC=NC=C3)C4=CC(=C(C=C4)Cl)O
How it was run: as §1

[7] = compound: C1=CC=C2C(=C1)C3=NNC4=CC=CC(=C43)C2=O
How it was run: as §1

[8] = compound: C1CCN(C1)C(=O)NC2=CC=CC(=C2)NC3=NC=C(C(=N3)NCCC4=CN=CN4)Br
How it was run: as §1

[9] = compound: C1CN(CCC1(CC2=CC=C(C=C2)Cl)N)C3=NC=NC4=C3C=CN4
How it was run: as §1

IRAK-1-4 Inhibitor I = compound: C1COCCN1CCN2C3=CC=CC=C3N=C2NC(=O)C4=CC(=CC=C4)[N+](=O)[O-] [IRAK-1-4 Inhibitor I]
How it was run: as §1

ibrutinib = compound: C=CC(=O)N1CCC[C@@H](n2nc(-c3ccc(Oc4ccccc4)cc3)c3c(N)ncnc32)C1 [ibrutinib]
How it was run: as §1

[10] = compound: CC(=O)c1cnc2ccc(-c3cc(Cl)c(O)c(Cl)c3)nc2c1N[C@H]1CC[C@H](CN(C)C)CC1
How it was run: as §1

ralimetinib = compound: CC(C)(C)Cn1c(N)nc2ccc(-c3[nH]c(C(C)(C)C)nc3-c3ccc(F)cc3)nc21 [ralimetinib]
How it was run: as §1

[11] = compound: CC(C)(O)CC(=O)NCCn1ccc2ncnc(Nc3ccc(Oc4cccc(C(F)(F)F)c4)c(Cl)c3)c21
How it was run: as §1

[12] = compound: CC(C)C1=C2N=C(C=C(N2N=C1)NCC3=CC=CC=C3)NCCCCCCN
How it was run: as §1

[13] = compound: CC(C)C[C@@H](C=O)NC(=O)[C@H](CC(C)C)NC(=O)[C@H](CC(C)C)NC(=O)OCc1ccccc1
How it was run: as §1

pinometostat = compound: CC(C)N(C[C@H]1O[C@@H](n2cnc3c(N)ncnc32)[C@H](O)[C@@H]1O)[C@H]1C[C@@H](CCc2nc3cc(C(C)(C)C)ccc3[nH]2)C1 [pinometostat]
How it was run: as §1

[14] = compound: CC1=C(C2=C(C=C1)C(=O)C3=CC=CC=C3N2CCCN)C
How it was run: as §1

[15] = compound: CC1=C(C(CC(=O)N1)C2=CC=C(C=C2)C(F)(F)F)C(=O)NC3=C(C=C4C(=C3)C=NN4)F
How it was run: as §1

Target | log2 fold change (erlotinib) | log2 fold change [1] | log2 fold change [2] | log2 fold change [3] | log2 fold change [4] | log2 fold change [5] | log2 fold change [6] | log2 fold change [7] | log2 fold change [8] | log2 fold change [9] | log2 fold change (IRAK-1-4 Inhibitor I) | log2 fold change (ibrutinib) | log2 fold change [10] | log2 fold change (ralimetinib) | log2 fold change [11] | log2 fold change [12] | log2 fold change [13] | log2 fold change (pinometostat) | log2 fold change [14] | log2 fold change [15]
PSME4 (UniProt Q14997) | inactive: -0.011 | inactive: 0.017 | inactive: -0.028 | inactive: 0.065 | inactive: 0.055 | inactive: 0.022 | inactive: -0.007 | inactive: 0.027 | inactive: 0.008 | inactive: 0.014 | inactive: 0.003 | inactive: -0.022 | inactive: -0.023 | inactive: -0.024 | inactive: -0.097 | inactive: -0.043 | active: 0.271 | inactive: 0.068 | inactive: 0.105 | 
PTTG1IP (UniProt P53801) | inactive: -0.011 | inactive: -0.06 | inactive: -0.039 | inactive: -0.001 | inactive: 0.026 | inactive: 0.033 |  | inactive: -0.082 | inactive: 0.037 | inactive: 0.01 | inactive: -0.122 | inactive: 0.028 | inactive: -0.004 |  | inactive: -0.031 | inactive: 0.029 |  | inactive: 0.028 | inactive: -0.119 | 
PRUNE2 isoform 3 (UniProt Q8WUY3) | inactive: -0.026 | inactive: 0.049 | inactive: -0.111 | inactive: 0.129 | inactive: -0.022 |  | inactive: 0.289 | inactive: -0.041 |  |  | inactive: 0.211 |  | inactive: -0.029 | inactive: 0.109 | inactive: -0.06 | inactive: -0.165 | inactive: -0.016 | inactive: -0.093 |  | inactive: -0.059
PRXL2A (UniProt Q9BRX8) | inactive: 0.1 | inactive: 0.052 | inactive: -0.043 | inactive: 0.114 | inactive: 0.246 | inactive: 0.064 |  | inactive: -0.213 | inactive: -0.102 | inactive: -0.063 | inactive: 0.056 | inactive: -0.103 | inactive: -0.129 |  | inactive: 0.108 | inactive: -0.04 |  | inactive: -0.021 | inactive: 0.201 | 
PSMC2 (UniProt P35998) | inactive: -0.05 | inactive: -0.054 | inactive: -0.057 | inactive: 0.008 | inactive: -0.001 | inactive: -0.03 | inactive: 0.019 | inactive: 0.02 | inactive: -0.007 | inactive: -0.031 | inactive: -0.024 | inactive: -0.009 | inactive: 0.079 | inactive: 0.046 | inactive: 0.011 | inactive: 0.053 | inactive: -0.183 | inactive: 0.033 | inactive: -0.039 | 
PRUNE1 (UniProt Q86TP1) | inactive: 0.002 | inactive: 0.063 | inactive: 0.062 | inactive: 0.03 | inactive: -0.034 | inactive: -0.016 | inactive: 0.051 | inactive: 0.045 | inactive: -0.079 | inactive: -0.005 | inactive: 0.049 | inactive: -0.058 | inactive: 0.012 | inactive: 0.017 | inactive: -0.037 | inactive: -0.129 | inactive: 0.04 | inactive: 0.08 | inactive: -0.021 | 
PTPMT1 (UniProt Q8WUK0) | inactive: -0.009 | inactive: -0.017 | inactive: 0.202 | inactive: 0.053 | inactive: 0.009 | inactive: 0.015 | inactive: 0.03 | inactive: 0.013 | inactive: -0.001 | inactive: -0.045 | inactive: 0.018 | inactive: -0.05 | inactive: -0.131 | inactive: -0.144 | inactive: -0.083 | active: -0.579 | inactive: 0.052 | inactive: 0.013 | inactive: -0.057 | 
PYURF (UniProt Q96I23) | inactive: -0.029 | inactive: -0.047 | inactive: 0.138 | inactive: 0.048 | inactive: 0.132 | inactive: 0.186 |  | inactive: 0.024 | inactive: 0.032 | inactive: 0.012 | inactive: 0.057 | inactive: 0.007 | inactive: 0.105 |  | inactive: -0.171 | inactive: 0.068 |  | inactive: -0.165 | inactive: 0.03 | inactive: -0.043
QRICH1 (UniProt Q2TAL8) | inactive: 0.066 | inactive: 0.361 | inactive: -0.023 | inactive: 0 | inactive: 0.282 | inactive: 0.059 | inactive: -0.053 | inactive: -0.007 | inactive: 0.014 | inactive: -0.076 | inactive: -0.108 | inactive: -0.024 | inactive: 0.048 | inactive: 0.055 | inactive: -0.237 | inactive: -0.321 | inactive: 0.08 | inactive: 0.026 | inactive: -0.08 | 
PSMB6 (UniProt P28072) | inactive: -0.067 | inactive: -0.079 | inactive: -0.024 | inactive: -0.001 | inactive: -0.068 | inactive: -0.006 | inactive: -0.046 | inactive: -0.012 | inactive: 0.011 | inactive: 0.042 | inactive: -0.007 | inactive: -0.025 | inactive: 0.049 | inactive: -0.045 | inactive: 0.045 | inactive: 0.129 | active: 0.4 | inactive: -0.053 | inactive: 0 | 
PSMD13 (UniProt Q9UNM6) | inactive: -0.091 | inactive: -0.026 | inactive: -0.076 | inactive: 0.002 | inactive: -0.02 | inactive: 0.013 | inactive: -0.002 | inactive: 0.044 | inactive: -0.008 | inactive: -0.069 | inactive: -0.048 | inactive: -0.039 | inactive: 0.048 | inactive: -0.021 | inactive: 0 | inactive: 0.009 | active: -0.265 | inactive: 0.09 | inactive: 0.032 | 
PTS (UniProt Q03393) | inactive: -0.012 | inactive: -0.021 | inactive: 0.054 | inactive: 0.043 | inactive: 0.021 | inactive: -0.011 |  | inactive: -0.006 | inactive: 0.177 | inactive: 0.174 | inactive: 0.054 | inactive: 0.102 | inactive: -0.053 |  | inactive: -0.067 | inactive: 0.034 |  | inactive: 0.053 | inactive: -0.114 | inactive: 0.077

Individual results from above:
log2 fold change (ibrutinib), PSMD13 (UniProt Q9UNM6) is entered as inactive: -0.039
log2 fold change [15], PTS (UniProt Q03393) is entered as inactive: 0.077
